Results are given in words; binding and its absence hold for the method and conditions named. In cells and extracts the contact can be indirect. For some assays here: Binding can be weak; no strength is given.

In publication PMC11723922 one finds binding data, which are given here for one molecule.

Assay [1] concerns the target eGFP-TGM4 D4-5 fusion (Heligmosomoides polygyrus). As to the kind of experiment: co-IP; GFP-TRAP beads on lysates (10 mM Tris-HCl pH 7.5, 150 mM NaCl, 0.5 mM EDTA, 0.5% NP-40) of MFB-F11 or RAW264.7 cells transfected with eGFP-TGM fusions; 1 h at 4 °C; western blot for endogenous TβRI, TβRII, CD44. (In general: A western blot detects proteins with antibodies after separation by electrophoresis.)

Assay [2] deals with eGFP-TGM4 D1-3 fusion (Heligmosomoides polygyrus). The assay is described as above.

B1: CD44, endogenous mouse (receptor, UniProt P15379 23-778)
chain: QIDLNVTCRYAGVFHVEKNGRYSISRTEAADLCQAFNSTLPTMDQMKLALSKGFETCRYGFIEGNVVIPRIHPNAICAANHTGVYILVTSNTSHYDTYCFNASAPPEEDCTSVTDLPNSFDGPVTITIVNRDGTRYSKKGEYRTHQEDIDASNIIDDDVSSGSTIEKSTPEGYILHTYLPTEQPTGDQDDSFFIRSTLATIASTVHSKSHAAAQKQNNWIWSWFGNSQSTTQTQEPTTSATTALMTTPETPPKRQEAQNWFSWLFQPSESKSHLHTTTKMPGTESNTNPTGWEPNEENEDETDTYPSFSGSGIDDDEDFISSTIATTPRVSARTEDNQDWTQWKPNHSNPEVLLQTTTRMADIDRISTSAHGENWTPEPQPPFNNHEYQDEEETPHATSTTPNSTAEAAATQQETWFQNGWQGKNPPTPSEDSHVTEGTTASAHNNHPSQRITTQSQEDVSWTDFFDPISHPMGQGHQTESKDTDSSHSTTLQPTAAPNTHLVEDLNRTGPLSVTTPQSHSQNFSTLHGEPEEDENYPTTSILPSSTKSSAKDARRGGSLPTDTTTSVEGYTFQYPDTMENGTLFPVTPAKTEVFGETEVTLATDSNVNVDGSLPGDRDSSKDSRGSSRTVTHGSELAGHSSANQDSGVTTTSGPMRRPQIPEWLIILASLLALALILAVCIAVNSRRRCGQKKKLVINGGNGTVEDRKPSELNGEASKSQEMVHLVNKEPSETPDQCMTADETRNLQSVDMKIGV
B1: the binding result in assay [1] was “binds”; in assay [2], “no binding”.
